Where two headings read alike, the source gives them in different places. No constants are given. Whether binding was seen depends on the method and setting. Binding seen in cells or lysates may run through a third protein. These calls come from enrichment with a bait or labelling near it, and not all partners need be listed.

Chains of the proteins cited; added tags and fusions are not shown. Lines headed by an entry give the natural chain unless they say otherwise; changes in a name come on top.
UniProt P72839: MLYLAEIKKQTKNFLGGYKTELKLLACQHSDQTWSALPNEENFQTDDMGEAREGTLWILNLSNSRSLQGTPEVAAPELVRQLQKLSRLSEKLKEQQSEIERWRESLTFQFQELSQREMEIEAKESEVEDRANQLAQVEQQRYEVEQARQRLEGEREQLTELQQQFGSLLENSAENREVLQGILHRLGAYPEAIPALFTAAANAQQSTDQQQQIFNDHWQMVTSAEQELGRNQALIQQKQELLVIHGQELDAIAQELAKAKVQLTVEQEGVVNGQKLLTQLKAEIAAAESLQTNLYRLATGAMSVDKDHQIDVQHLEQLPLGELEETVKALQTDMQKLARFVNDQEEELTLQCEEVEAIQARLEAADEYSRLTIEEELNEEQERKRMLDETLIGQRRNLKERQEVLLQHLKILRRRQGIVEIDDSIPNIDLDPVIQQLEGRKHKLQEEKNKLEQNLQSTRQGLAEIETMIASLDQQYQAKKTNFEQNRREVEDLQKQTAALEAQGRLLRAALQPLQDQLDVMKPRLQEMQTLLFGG
UniProt P74463: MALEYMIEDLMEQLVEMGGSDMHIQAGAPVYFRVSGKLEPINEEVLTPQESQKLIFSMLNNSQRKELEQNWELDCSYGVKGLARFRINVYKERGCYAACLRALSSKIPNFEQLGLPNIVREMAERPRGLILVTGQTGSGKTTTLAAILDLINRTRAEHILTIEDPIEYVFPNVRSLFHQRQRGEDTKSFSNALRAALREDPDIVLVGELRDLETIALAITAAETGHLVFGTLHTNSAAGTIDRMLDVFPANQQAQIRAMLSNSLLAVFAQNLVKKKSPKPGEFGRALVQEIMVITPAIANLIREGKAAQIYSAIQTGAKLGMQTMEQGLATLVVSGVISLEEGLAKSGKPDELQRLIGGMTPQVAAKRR

Test [1] has as its target HmpFSyn-YFP (Synechocystis sp. PCC 6803) (UniProt P72839). In words: affinity purification with mass spectrometry; anti-GFP μMACS MicroBeads on cell-free lysate (PBS, 1% NP-40) of Synechocystis expressing HmpFSyn-YFP or Anabaena expressing YFP-All4981^ΔTPR3–4; eluted proteins identified by LC-MS/MS.
The target is the same in test [2]. The description is as above. This is another data set of the same source.

For the molecule “twitching motility protein (Slr0161) (from UniProt P74463)”, the binding result in test [1] was “binds”.

B1: MinD (Synechocystis) (protein, UniProt Q55900 1-266)
chain: MNRIIVVTSGKGGVGKTTTTANLGAALARLGKKVVLIDADFGLRNLDLLLGLEQRIVYTAIDVLADECTIDKALVKDKRLPNLVLLPAAQNRSKDAINAEQMQSLVEQLKDKFDYIIIDCPAGIEAGFRNAVAPAQEAIIVTTPEMSAVRDADRVIGLLEAEDIGKISLIVNRLRPEMVQLNQMISVEDILDLLAVPLIGILPDDQKIIISTNKGEPLVMEEKLSVPGLAFQNIARRLEGQDIPFLDFMAAHNTLLNRIRRRLLGG
For B1, the binding result in test [2] is recorded as “binds”.

B2: FtsZ (Synechocystis) (protein, UniProt P73456 1-430)
chain: MTLNNDLPLNNIGFTGSGLNDGTEGLDDLFSSSIVDNEPLEALVETPTFASPSPNLKRDQIVPSNIAKIKVIGVGGGGCNAVNRMIASGVTGIDFWAINTDSQALTNTNAPDCIQIGQKLTRGLGAGGNPAIGQKAAEESRDEIARSLEGTDLVFITAGMGGGTGTGAAPIVAEVAKEMGCLTVGIVTRPFTFEGRRRAKQAEEGINALQSRVDTLIVIPNNQLLSVIPAETPLQEAFRVADDILRQGVQGISDIIIIPGLVNVDFADVRAVMADAGSALMGIGVGSGKSRAKEAATAAISSPLLESSIQGAKGVVFNVTGGTDLTLHEVNVAAEIIYEVVDADANIIFGAVIDDRLQGEMRITVIATGFNGEKEKPQAKTSSKPVLSGPPAGVETVPSTTTPEDPLGEIPMAPELDIPDFLQKRRFPRR
For the molecule B2, in test [2], the binding entry was “binds”.

The values are drawn from article PMC7002697.
